# The list shows a part of the results.
# Sequences of proteins named here, by UniProt entry; tags and fusion partners are left off. A change or cut given only in a name is not applied to a line headed by its entry.
# UniProt O00186: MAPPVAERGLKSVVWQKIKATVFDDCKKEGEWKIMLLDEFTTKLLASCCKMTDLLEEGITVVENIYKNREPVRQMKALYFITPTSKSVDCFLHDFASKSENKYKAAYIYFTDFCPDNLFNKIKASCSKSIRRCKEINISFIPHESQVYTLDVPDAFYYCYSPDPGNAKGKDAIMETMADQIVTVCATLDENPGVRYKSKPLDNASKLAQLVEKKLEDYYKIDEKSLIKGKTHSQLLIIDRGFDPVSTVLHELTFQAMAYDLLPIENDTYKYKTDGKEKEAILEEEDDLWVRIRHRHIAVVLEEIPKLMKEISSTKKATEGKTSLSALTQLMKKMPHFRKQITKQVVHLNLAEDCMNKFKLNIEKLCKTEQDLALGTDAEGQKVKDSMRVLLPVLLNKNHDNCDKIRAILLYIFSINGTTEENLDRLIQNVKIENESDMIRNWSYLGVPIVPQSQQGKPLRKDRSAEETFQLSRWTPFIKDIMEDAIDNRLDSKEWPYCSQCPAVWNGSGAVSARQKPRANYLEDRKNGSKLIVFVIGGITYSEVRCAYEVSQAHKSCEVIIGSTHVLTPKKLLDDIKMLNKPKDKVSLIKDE
# UniProt Q5T5C0: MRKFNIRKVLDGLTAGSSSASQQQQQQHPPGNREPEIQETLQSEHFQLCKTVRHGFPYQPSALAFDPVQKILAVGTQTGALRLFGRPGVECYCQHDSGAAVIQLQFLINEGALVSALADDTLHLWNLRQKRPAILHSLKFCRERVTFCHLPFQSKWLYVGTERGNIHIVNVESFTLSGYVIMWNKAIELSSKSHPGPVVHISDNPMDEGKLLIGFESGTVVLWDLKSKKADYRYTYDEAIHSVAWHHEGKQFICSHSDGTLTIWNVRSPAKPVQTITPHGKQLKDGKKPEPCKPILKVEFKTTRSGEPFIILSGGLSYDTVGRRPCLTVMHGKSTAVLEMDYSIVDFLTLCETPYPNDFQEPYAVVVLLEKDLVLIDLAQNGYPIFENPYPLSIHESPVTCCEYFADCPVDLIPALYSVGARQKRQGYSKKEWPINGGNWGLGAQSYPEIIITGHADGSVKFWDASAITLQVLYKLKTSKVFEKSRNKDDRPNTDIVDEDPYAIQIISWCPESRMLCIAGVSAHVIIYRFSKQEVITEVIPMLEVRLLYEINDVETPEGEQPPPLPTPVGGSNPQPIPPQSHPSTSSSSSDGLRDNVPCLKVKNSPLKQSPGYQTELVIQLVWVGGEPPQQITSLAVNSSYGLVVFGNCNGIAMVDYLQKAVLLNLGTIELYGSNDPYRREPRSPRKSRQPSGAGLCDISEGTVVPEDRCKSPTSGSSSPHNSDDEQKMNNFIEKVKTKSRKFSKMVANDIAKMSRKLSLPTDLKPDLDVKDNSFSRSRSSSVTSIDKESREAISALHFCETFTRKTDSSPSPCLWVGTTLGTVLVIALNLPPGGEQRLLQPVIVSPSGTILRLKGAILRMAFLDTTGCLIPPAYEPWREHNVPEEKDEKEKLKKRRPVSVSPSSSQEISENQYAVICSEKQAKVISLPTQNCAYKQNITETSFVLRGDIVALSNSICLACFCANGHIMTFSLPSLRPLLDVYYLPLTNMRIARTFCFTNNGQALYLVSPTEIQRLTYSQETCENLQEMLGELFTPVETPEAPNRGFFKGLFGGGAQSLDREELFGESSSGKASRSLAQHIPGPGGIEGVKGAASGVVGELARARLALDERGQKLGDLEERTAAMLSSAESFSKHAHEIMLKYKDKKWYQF
# UniProt P53597: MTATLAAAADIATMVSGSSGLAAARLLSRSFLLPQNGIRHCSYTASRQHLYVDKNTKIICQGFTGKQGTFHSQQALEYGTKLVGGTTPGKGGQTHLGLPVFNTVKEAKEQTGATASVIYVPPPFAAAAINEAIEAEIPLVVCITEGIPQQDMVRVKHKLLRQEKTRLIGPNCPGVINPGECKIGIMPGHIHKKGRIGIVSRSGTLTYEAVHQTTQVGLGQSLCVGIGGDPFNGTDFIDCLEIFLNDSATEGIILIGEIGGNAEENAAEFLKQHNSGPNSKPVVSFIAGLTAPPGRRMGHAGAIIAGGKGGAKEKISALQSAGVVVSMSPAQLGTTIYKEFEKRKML
# UniProt Q6ZWJ1: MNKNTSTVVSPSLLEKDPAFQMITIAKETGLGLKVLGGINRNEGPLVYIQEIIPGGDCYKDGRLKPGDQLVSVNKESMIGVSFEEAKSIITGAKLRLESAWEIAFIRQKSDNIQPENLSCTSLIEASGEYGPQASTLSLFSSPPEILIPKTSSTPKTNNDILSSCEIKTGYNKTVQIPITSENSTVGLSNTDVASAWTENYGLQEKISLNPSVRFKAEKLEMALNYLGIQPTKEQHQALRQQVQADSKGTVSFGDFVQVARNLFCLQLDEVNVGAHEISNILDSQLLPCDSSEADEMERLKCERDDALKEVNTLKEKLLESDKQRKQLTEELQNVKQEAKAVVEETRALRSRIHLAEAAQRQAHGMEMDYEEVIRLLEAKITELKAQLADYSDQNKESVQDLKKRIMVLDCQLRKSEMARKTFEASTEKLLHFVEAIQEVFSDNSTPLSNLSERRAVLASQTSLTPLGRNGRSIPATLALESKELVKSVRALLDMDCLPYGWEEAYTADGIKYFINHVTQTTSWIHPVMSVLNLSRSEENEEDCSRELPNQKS
# UniProt O95926: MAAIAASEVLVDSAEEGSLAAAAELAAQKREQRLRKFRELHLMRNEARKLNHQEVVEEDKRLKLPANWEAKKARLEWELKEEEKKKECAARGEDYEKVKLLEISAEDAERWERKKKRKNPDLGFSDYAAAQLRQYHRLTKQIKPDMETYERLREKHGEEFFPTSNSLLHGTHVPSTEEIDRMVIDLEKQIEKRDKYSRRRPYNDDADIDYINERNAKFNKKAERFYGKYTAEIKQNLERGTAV
# UniProt O43426, whole entry, looked up: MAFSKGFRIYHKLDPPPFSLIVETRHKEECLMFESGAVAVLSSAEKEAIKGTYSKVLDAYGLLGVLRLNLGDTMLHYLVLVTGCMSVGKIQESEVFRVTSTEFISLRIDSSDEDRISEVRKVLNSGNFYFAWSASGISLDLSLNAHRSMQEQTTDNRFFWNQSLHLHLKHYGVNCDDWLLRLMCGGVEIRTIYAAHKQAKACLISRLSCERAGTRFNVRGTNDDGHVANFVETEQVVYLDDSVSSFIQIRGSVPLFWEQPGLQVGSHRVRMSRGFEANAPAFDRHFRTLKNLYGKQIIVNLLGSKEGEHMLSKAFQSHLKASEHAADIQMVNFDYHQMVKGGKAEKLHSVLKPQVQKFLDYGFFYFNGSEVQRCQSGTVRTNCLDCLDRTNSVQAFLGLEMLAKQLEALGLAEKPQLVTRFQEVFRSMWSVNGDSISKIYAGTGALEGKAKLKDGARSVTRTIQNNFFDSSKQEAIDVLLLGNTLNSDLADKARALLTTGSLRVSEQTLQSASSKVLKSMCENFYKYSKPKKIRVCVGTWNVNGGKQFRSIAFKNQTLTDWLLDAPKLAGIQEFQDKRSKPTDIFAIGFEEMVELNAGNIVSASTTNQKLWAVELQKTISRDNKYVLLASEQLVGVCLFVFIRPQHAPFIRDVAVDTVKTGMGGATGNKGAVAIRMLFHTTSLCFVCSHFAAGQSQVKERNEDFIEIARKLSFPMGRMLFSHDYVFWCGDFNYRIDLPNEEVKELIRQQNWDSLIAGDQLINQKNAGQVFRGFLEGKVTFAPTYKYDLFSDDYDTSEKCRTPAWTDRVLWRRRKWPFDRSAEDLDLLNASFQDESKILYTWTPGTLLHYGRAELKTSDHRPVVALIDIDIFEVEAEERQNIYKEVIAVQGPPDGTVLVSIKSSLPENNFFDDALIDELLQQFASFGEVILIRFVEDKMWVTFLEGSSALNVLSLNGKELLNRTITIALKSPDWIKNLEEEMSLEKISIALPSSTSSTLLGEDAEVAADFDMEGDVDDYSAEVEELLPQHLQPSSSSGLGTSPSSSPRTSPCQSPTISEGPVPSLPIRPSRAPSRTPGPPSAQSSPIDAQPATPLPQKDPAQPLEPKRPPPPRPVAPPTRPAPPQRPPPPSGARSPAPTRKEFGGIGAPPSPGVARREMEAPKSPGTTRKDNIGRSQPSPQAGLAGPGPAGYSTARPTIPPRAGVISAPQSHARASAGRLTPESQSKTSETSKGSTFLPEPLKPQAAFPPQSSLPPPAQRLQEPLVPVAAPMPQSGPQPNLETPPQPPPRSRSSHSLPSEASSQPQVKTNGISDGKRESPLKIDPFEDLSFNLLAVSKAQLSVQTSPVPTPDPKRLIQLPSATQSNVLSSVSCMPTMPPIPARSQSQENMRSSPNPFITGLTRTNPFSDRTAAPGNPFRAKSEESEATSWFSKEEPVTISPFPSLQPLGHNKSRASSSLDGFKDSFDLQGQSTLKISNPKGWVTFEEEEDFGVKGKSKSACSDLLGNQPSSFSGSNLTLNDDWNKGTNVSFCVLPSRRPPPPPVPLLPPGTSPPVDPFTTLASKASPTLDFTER
# UniProt Q9UMZ2: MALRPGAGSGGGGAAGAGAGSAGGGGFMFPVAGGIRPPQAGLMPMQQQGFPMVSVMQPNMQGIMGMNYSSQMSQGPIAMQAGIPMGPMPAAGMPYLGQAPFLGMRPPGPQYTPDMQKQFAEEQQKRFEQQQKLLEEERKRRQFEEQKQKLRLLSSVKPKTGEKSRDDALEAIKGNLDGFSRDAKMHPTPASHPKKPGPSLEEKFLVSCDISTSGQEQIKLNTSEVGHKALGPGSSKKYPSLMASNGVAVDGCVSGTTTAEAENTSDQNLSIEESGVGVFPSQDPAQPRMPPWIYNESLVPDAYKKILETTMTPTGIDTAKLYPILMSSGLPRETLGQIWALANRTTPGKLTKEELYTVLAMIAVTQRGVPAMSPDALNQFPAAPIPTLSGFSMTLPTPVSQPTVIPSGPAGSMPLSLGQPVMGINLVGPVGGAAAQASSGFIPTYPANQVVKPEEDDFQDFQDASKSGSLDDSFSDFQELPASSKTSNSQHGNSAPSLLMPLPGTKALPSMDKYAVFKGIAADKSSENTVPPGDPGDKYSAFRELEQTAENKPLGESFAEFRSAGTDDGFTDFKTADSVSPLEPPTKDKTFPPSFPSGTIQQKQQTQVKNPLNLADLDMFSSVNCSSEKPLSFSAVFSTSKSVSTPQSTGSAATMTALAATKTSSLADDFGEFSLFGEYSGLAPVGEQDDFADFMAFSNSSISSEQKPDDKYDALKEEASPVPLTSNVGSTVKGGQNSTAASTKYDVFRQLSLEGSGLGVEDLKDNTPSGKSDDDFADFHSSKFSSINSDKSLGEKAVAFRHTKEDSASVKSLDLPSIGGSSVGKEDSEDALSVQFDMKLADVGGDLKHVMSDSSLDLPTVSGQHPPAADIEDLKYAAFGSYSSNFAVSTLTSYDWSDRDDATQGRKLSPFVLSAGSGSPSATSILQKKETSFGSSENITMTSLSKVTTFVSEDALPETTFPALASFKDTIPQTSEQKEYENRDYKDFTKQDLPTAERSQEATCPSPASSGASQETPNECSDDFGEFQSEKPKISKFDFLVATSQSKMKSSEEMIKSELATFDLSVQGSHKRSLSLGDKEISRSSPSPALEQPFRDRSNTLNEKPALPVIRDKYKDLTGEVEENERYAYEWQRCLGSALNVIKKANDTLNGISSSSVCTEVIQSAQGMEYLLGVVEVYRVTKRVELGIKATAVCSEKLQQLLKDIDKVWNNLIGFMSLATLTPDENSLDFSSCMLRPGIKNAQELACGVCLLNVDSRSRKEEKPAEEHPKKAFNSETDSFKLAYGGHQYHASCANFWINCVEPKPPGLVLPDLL
# UniProt O15533, whole entry, looked up: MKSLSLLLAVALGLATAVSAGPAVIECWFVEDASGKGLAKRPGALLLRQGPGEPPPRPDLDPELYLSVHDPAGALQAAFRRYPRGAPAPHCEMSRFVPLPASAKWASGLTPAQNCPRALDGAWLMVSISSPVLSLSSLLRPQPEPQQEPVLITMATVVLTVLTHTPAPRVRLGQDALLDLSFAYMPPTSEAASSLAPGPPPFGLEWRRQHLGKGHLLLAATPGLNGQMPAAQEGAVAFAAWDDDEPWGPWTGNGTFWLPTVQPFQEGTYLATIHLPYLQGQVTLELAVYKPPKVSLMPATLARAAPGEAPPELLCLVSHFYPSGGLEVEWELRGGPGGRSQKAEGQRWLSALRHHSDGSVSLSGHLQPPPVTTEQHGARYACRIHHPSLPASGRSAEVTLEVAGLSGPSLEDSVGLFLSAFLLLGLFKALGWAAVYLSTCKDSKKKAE
# UniProt Q15545, whole entry, looked up: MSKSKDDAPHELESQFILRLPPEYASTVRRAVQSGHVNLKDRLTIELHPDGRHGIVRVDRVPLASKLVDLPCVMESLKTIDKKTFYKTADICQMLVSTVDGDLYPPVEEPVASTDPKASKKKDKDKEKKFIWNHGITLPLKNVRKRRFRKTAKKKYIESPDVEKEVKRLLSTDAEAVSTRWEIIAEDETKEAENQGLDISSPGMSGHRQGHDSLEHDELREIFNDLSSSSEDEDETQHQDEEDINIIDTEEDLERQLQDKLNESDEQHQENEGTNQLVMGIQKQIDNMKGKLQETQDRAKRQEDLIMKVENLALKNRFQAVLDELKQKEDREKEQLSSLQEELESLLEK
# Key:
# Experiment in all cases: log2 fold change, soluble protein after heating vs DMSO (PISA); higher = thermal stabilisation; K562 cells, 10 uM, 30 min; active = over 0.2 and 3.5 SD of the protein, either way, in both replicates (recomputed)
# [1] = compound: COC1=CC=C(C=C1)CN2C=CC3=C2C=C(C=C3)C(=O)NO
# Procedure, shortened: (§1)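 Quantification of soluble protein used TMTpro 16plex LC-MS/MS, with channel sums equalised. Samples were the supernatant after 21,000xg for 90 min of pooled aliquots from K562 cells (2×10^6 cells/mL) treated with 10 μM compound for 30 min, heated for 3 min over 48°C-58°C, and extracted in PBS with 0.5% NP-40 at 4°C. Values, from duplicates, describe thermal stability against control samples on a log2 fold-change scale.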
# filanesib = compound: CON(C)C(=O)N1N=C(c2cc(F)ccc2F)S[C@@]1(CCCN)c1ccccc1 [filanesib]
# Procedure, shortened: as §1
# zotarolimus = compound: CO[C@H]1C[C@@H]2CC[C@@H](C)[C@@](O)(O2)C(=O)C(=O)N2CCCC[C@H]2C(=O)O[C@H]([C@H](C)C[C@@H]2CC[C@H](n3cnnn3)[C@H](OC)C2)CC(=O)[C@H](C)/C=C(\C)[C@@H](O)[C@@H](OC)C(=O)[C@H](C)C[C@H](C)/C=C/C=C/C=C/1C [zotarolimus]
# Procedure, shortened: as §1
# idasanutlin = compound: COc1cc(C(=O)O)ccc1NC(=O)[C@@H]1N[C@@H](CC(C)(C)C)[C@](C#N)(c2ccc(Cl)cc2F)[C@H]1c1cccc(Cl)c1F [idasanutlin]
# Procedure, shortened: as §1
# alisertib = compound: COc1cc(Nc2ncc3c(n2)-c2ccc(Cl)cc2C(c2c(F)cccc2OC)=NC3)ccc1C(=O)O [alisertib]
# Procedure, shortened: as §1
# [2] = compound: COc1cc2nc(-c3cc(F)ccc3O)nc(N[C@@H]3CNC[C@H]3C(C)(C)O)c2cc1OC
# Procedure, shortened: as §1
# gefitinib = compound: COc1cc2ncnc(Nc3ccc(F)c(Cl)c3)c2cc1OCCCN1CCOCC1 [gefitinib]
# Procedure, shortened: as §1
# [3] = compound: COc1cccc2cc(-c3nc([C@H]4CC[C@H](C(=O)O)CC4)n4ncnc(N)c34)[nH]c12
# Procedure, shortened: as §1
# lapatinib = compound: CS(=O)(=O)CCNCc1ccc(-c2ccc3ncnc(Nc4ccc(OCc5cccc(F)c5)c(Cl)c4)c3c2)o1 [lapatinib]
# Procedure, shortened: as §1
# pictilisib = compound: CS(=O)(=O)N1CCN(Cc2cc3nc(-c4cccc5[nH]ncc45)nc(N4CCOCC4)c3s2)CC1 [pictilisib]
# Procedure, shortened: as §1
Target,log2 fold change [1],log2 fold change (filanesib),log2 fold change (zotarolimus),log2 fold change (idasanutlin),log2 fold change (alisertib),log2 fold change [2],log2 fold change (gefitinib),log2 fold change [3],log2 fold change (lapatinib),log2 fold change (pictilisib)
STRBP (UniProt Q96SI9),inactive: 0.003,inactive: 0.191,inactive: -0.036,inactive: 0.114,inactive: -0.221,inactive: 0.085,inactive: -0.073,inactive: 0.039,inactive: 0.053,–
TAL1 (UniProt P17542),inactive: -0.02,inactive: 0.033,inactive: -0.078,inactive: 0.034,inactive: -0.042,inactive: 0.049,inactive: -0.004,inactive: 0.089,inactive: -0.001,inactive: -0.011
STXBP3 (UniProt O00186),inactive: 0.169,inactive: -0.002,inactive: 0.098,inactive: 0.01,inactive: 0.003,inactive: 0.012,inactive: -0.016,inactive: -0.092,inactive: 0.042,inactive: -0.019
STXBP5 (UniProt Q5T5C0),inactive: -0.012,inactive: -0.039,inactive: 0,inactive: -0.022,inactive: -0.084,inactive: 0.015,inactive: -0.006,inactive: 0.003,inactive: 0.023,inactive: -0.038
SUCLG1 (UniProt P53597),inactive: -0.046,inactive: -0.107,inactive: 0.004,inactive: -0.107,inactive: 0.037,inactive: 0.051,inactive: -0.01,inactive: 0.041,inactive: -0.043,inactive: 0.003
TAF9 (UniProt Q16594),inactive: 0.066,inactive: 0.109,inactive: -0.018,inactive: 0.056,inactive: -0.109,inactive: 0.024,inactive: 0.01,inactive: 0.019,inactive: -0.028,inactive: -0.017
TANGO6 (UniProt Q9C0B7),inactive: -0.025,inactive: 0.04,inactive: 0.061,inactive: -0.112,inactive: 0.032,inactive: -0.015,inactive: -0.049,inactive: -0.036,inactive: 0.022,–
TARBP1 (UniProt Q13395),inactive: -0.036,inactive: -0.077,inactive: 0.105,inactive: -0.027,inactive: 0.096,inactive: 0.049,inactive: -0.026,inactive: -0.019,inactive: -0.015,inactive: -0.078
STXBP4 (UniProt Q6ZWJ1),inactive: -0.165,–,–,–,–,–,–,–,–,–
TARS2 (UniProt Q9BW92),active: -0.487,inactive: -0.02,inactive: -0.006,inactive: -0.084,inactive: -0.021,inactive: 0.044,inactive: -0.023,inactive: 0.041,inactive: -0.022,inactive: 0.004
SYNGR2 (UniProt O43760),inactive: -0.078,inactive: 0.009,inactive: -0.051,inactive: 0.028,inactive: -0.136,inactive: -0.009,inactive: 0.074,inactive: 0.099,inactive: 0.095,inactive: -0.002
STX16 isoform 2 (UniProt O14662),inactive: 0.121,inactive: 0.016,inactive: 0.007,inactive: -0.011,inactive: -0.008,inactive: 0.071,inactive: -0.001,inactive: 0.034,inactive: -0.059,inactive: 0.011
SYF2 (UniProt O95926),inactive: -0.236,inactive: 0.069,inactive: -0.174,inactive: 0.058,inactive: -0.07,inactive: 0.191,inactive: -0.109,inactive: 0.02,inactive: -0.025,inactive: -0.092
TALDO1 (UniProt P37837),inactive: -0.058,inactive: -0.097,inactive: 0.063,inactive: -0.042,inactive: -0.035,inactive: -0.028,inactive: -0.015,inactive: -0.021,inactive: -0.007,inactive: -0.057
TADA3 (UniProt O75528),inactive: 0.03,inactive: -0.048,inactive: 0.016,inactive: -0.041,inactive: -0.055,inactive: -0.022,inactive: 0.01,inactive: -0.015,inactive: -0.044,inactive: -0.008
SYNJ1 (UniProt O43426),inactive: -0.07,inactive: 0.09,inactive: 0.007,inactive: 0.021,inactive: -0.072,inactive: 0.095,inactive: 0.075,inactive: 0.059,inactive: 0.076,inactive: 0.148
SYNRG (UniProt Q9UMZ2),inactive: -0.006,inactive: 0.031,inactive: -0.024,inactive: -0.062,inactive: -0.085,inactive: 0.016,inactive: -0.062,inactive: 0.03,inactive: 0.011,inactive: 0.046
SUMO3 isoform 2 (UniProt P55854),inactive: -0.11,inactive: 0.054,inactive: -0.057,inactive: 0.069,inactive: -0.065,inactive: -0.097,inactive: -0.033,inactive: 0.086,inactive: -0.019,inactive: -0.088
TAPBP isoform 3 (UniProt O15533),inactive: 0.175,inactive: -0.052,inactive: 0.103,inactive: 0.099,inactive: 0.062,inactive: -0.116,inactive: -0.025,inactive: 0.024,inactive: 0.225,inactive: -0.176
STX8 (UniProt Q9UNK0),inactive: -0.04,inactive: 0.018,inactive: -0.088,inactive: 0.082,inactive: -0.048,inactive: -0.008,inactive: -0.022,inactive: 0.065,inactive: -0.021,inactive: -0.018
STX3 (UniProt Q13277),inactive: -0.067,inactive: -0.068,inactive: -0.062,inactive: -0.07,inactive: -0.008,inactive: -0.035,inactive: 0.051,inactive: 0.04,inactive: 0.066,inactive: 0.099
STRAP isoform 2 (UniProt Q9Y3F4),inactive: -0.031,inactive: 0.011,inactive: -0.024,inactive: -0.019,inactive: -0.039,inactive: 0.022,inactive: -0.01,inactive: 0.04,inactive: -0.016,inactive: 0.031
STXBP1 (UniProt P61764),inactive: 0.235,inactive: -0.08,inactive: 0.094,inactive: 0.103,inactive: -0.021,inactive: 0.037,inactive: 0.02,inactive: -0.003,inactive: 0.138,inactive: 0.017
SURF6 (UniProt O75683),inactive: 0.026,inactive: 0.335,inactive: 0.065,inactive: 0.159,inactive: -0.116,inactive: -0.008,inactive: 0.018,inactive: -0.093,inactive: 0.379,inactive: -0.014
STK39 (UniProt Q9UEW8),inactive: -0.016,inactive: -0.033,inactive: 0.062,inactive: -0.06,inactive: -0.044,inactive: 0.034,inactive: -0.014,inactive: -0.036,inactive: -0.002,inactive: 0.107
SYAP1 (UniProt Q96A49),inactive: -0.028,inactive: -0.035,inactive: -0.003,inactive: -0.002,inactive: -0.028,inactive: -0.016,inactive: -0.008,inactive: -0.001,inactive: -0.038,inactive: -0.009
TAF7 (UniProt Q15545),inactive: -0.091,inactive: 0.063,inactive: 0.03,inactive: -0.004,inactive: -0.066,inactive: -0.014,inactive: 0.031,inactive: -0.031,inactive: 0.012,inactive: -0.05
SZRD1 (UniProt Q7Z422),inactive: 0.179,inactive: 0.014,inactive: -0.028,inactive: 0.019,inactive: 0.001,inactive: -0.044,inactive: -0.001,inactive: 0.104,inactive: 0.034,inactive: 0.002

# Record cards, as listed above. Values in the order: log2 fold change [1] | log2 fold change (filanesib) | log2 fold change (zotarolimus) | log2 fold change (idasanutlin) | log2 fold change (alisertib) | log2 fold change [2] | log2 fold change (gefitinib) | log2 fold change [3] | log2 fold change (lapatinib) | log2 fold change (pictilisib)
# STXBP5 (UniProt Q5T5C0) as listed: inactive: -0.012 | inactive: -0.039 | inactive: 0 | inactive: -0.022 | inactive: -0.084 | inactive: 0.015 | inactive: -0.006 | inactive: 0.003 | inactive: 0.023 | inactive: -0.038
# STXBP3 (UniProt O00186) as listed: inactive: 0.169 | inactive: -0.002 | inactive: 0.098 | inactive: 0.01 | inactive: 0.003 | inactive: 0.012 | inactive: -0.016 | inactive: -0.092 | inactive: 0.042 | inactive: -0.019
